This note sets out measurements from paper PMC10713652.

Sequences of proteins named here, by UniProt entry; tags and fusion partners are left off. Residues count along the entry.
UniProt Q8NI17, residues 20-732: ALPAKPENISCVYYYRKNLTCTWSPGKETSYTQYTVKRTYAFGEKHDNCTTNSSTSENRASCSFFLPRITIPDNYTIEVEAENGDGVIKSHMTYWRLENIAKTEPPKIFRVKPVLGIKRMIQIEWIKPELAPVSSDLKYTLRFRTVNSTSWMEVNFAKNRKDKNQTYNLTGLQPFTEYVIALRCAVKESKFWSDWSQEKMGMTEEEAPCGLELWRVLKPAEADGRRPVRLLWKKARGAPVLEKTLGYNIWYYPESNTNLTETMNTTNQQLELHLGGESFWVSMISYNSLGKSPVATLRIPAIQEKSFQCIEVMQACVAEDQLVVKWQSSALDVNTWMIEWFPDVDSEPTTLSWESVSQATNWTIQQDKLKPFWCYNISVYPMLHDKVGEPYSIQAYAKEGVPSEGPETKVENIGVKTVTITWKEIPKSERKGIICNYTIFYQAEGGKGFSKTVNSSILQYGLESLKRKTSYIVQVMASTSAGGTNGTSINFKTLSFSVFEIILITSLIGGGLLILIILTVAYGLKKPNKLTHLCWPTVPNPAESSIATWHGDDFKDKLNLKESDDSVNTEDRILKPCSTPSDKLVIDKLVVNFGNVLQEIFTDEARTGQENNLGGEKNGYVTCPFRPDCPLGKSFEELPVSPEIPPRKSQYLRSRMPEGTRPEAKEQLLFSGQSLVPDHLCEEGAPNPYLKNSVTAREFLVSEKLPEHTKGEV
UniProt P20309: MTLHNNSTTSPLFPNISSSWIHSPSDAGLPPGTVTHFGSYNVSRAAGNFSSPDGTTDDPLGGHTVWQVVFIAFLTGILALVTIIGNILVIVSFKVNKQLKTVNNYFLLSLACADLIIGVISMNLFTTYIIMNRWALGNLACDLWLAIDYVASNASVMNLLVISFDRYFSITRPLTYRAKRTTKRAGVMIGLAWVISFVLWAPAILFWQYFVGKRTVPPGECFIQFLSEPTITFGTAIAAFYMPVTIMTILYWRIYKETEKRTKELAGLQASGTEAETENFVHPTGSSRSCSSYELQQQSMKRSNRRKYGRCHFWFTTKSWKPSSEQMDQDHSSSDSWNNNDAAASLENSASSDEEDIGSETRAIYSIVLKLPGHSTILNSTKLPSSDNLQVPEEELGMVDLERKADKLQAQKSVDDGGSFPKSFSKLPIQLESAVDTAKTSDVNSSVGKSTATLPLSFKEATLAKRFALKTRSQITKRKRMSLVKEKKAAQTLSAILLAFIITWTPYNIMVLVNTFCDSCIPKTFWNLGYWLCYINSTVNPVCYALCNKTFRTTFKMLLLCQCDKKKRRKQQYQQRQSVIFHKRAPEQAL

Assay [1] has as its target C-terminal FLAG-tagged IL-31RA (interleukin 31 receptor alpha), overexpressed from an Origene plasmid (UniProt Q8NI17). The experiment in a line: co-IP; HEK293T cells transfected for 72 h with FLAG-tagged IL-31RA or control plasmid; RIPA lysates; agarose A/G beads with anti-FLAG or control IgG; washed three times with PBS, eluted with low pH glycine; blots with anti-Flag, anti-IL31RA and anti-CHRM3.

In assay [2] the target is IL-31RA in hTERT cells (human airway smooth muscle cell line) (human (endogenous in hTERT cells)) (UniProt Q8NI17). The experiment in a line: proximity ligation; in situ Duolink PLA in hTERT cells; methanol-fixed; primary antibodies against IL-31RA and CHRM3, isotype IgG as negative control.

No constants are given. Whether binding was seen depends on the method and setting. Binding seen in cells or lysates may run through a third protein. Some entries that bind do so weakly or less than the wild type.

As for “endogenous CHRM3 protein of HEK293T cells (from UniProt P20309 1-590) (receptor)”, the binding result in assay [1] is “binds”. Regarding “CHRM3 in hTERT cells (human airway smooth muscle cell line) (from UniProt P20309 1-590) (receptor)”, the binding result in assay [2] was “binds”.
